This test has as its target linker histone variant H1t (mouse (endogenous in P20 mouse testicular cells)) (UniProt Q07133). Put plainly: affinity purification with mass spectrometry; H1t ChIP/IP from P20 mouse testicular chromatin, eluted with the elution buffer of the Pierce co-IP kit, resolved on 15% SDS gel; proteins enriched over the non-specific rabbit IgG fraction.

Amino acid sequences for entries named in this document (tags omitted). A change or cut given only in a name is not applied to a line headed by its entry.
UniProt Q07133: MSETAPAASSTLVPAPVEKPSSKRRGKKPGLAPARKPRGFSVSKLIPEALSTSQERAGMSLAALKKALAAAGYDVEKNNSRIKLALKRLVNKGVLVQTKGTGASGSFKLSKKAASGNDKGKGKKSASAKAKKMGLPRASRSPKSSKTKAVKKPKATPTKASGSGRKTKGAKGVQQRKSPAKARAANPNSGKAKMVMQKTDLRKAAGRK
UniProt P09405: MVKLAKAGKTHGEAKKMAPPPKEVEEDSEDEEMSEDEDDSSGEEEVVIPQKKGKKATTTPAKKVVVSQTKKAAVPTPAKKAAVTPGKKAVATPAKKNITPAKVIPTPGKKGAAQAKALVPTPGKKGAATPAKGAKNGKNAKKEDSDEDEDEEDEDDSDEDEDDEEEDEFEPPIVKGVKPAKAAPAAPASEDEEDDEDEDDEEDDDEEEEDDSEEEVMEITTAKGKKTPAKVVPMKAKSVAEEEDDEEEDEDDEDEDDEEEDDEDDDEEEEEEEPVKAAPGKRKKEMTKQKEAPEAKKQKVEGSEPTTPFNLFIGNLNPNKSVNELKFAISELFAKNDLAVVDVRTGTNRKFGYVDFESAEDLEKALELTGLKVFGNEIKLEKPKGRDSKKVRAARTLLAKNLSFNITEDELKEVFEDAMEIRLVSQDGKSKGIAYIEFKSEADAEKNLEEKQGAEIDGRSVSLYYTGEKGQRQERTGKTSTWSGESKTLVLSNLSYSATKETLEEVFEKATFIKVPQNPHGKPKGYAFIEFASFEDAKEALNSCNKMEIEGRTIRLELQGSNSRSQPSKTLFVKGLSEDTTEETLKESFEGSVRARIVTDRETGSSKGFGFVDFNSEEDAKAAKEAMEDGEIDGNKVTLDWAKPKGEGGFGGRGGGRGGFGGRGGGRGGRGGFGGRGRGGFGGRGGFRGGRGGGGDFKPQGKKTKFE
UniProt Q61879: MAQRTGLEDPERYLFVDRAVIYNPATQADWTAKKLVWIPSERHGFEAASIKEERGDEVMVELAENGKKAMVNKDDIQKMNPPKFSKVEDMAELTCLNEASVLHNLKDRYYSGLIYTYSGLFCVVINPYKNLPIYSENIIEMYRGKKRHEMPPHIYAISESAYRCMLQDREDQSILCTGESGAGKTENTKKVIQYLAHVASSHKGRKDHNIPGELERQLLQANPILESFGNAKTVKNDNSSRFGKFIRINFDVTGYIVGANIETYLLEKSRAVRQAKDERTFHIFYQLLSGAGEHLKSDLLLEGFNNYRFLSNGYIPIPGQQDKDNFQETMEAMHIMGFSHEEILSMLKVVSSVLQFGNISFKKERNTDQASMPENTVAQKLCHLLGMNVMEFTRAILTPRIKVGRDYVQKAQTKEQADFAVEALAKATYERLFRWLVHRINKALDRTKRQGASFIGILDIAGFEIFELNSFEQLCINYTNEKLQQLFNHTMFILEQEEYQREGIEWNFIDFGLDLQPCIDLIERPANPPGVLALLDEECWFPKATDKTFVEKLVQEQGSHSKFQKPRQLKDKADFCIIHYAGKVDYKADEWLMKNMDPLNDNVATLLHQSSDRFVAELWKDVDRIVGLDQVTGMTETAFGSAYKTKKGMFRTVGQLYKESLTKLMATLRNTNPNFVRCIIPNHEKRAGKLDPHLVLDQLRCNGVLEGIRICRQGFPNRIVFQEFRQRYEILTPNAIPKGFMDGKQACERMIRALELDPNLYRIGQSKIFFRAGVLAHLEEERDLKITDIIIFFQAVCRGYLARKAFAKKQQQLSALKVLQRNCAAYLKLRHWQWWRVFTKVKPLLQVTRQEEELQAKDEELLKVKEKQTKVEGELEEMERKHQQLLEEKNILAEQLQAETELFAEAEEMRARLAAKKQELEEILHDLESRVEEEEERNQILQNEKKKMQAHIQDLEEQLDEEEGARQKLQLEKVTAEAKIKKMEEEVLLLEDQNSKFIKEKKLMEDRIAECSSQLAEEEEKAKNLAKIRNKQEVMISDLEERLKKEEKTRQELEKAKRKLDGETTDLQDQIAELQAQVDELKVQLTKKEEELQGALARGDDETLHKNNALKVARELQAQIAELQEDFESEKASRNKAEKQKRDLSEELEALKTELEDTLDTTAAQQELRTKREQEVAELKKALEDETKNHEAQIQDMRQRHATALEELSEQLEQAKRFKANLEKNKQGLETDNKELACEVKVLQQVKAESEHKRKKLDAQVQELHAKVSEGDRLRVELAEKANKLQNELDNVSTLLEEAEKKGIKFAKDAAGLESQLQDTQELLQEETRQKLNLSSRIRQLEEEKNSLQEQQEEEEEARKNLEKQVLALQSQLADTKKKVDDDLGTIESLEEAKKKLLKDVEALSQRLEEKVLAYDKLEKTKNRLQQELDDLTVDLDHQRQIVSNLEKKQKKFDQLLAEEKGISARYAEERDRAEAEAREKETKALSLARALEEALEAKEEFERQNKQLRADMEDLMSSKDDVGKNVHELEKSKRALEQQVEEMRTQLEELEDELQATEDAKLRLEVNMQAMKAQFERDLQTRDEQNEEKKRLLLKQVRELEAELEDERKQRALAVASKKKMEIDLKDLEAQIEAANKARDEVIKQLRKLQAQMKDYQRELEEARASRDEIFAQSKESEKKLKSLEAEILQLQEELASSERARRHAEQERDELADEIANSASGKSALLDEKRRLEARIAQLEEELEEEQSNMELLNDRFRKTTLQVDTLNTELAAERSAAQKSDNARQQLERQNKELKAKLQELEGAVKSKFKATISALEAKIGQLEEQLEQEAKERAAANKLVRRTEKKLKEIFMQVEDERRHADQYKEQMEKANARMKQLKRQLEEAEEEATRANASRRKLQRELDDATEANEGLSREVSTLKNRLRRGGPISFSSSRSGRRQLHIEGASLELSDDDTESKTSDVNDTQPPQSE
UniProt O08638: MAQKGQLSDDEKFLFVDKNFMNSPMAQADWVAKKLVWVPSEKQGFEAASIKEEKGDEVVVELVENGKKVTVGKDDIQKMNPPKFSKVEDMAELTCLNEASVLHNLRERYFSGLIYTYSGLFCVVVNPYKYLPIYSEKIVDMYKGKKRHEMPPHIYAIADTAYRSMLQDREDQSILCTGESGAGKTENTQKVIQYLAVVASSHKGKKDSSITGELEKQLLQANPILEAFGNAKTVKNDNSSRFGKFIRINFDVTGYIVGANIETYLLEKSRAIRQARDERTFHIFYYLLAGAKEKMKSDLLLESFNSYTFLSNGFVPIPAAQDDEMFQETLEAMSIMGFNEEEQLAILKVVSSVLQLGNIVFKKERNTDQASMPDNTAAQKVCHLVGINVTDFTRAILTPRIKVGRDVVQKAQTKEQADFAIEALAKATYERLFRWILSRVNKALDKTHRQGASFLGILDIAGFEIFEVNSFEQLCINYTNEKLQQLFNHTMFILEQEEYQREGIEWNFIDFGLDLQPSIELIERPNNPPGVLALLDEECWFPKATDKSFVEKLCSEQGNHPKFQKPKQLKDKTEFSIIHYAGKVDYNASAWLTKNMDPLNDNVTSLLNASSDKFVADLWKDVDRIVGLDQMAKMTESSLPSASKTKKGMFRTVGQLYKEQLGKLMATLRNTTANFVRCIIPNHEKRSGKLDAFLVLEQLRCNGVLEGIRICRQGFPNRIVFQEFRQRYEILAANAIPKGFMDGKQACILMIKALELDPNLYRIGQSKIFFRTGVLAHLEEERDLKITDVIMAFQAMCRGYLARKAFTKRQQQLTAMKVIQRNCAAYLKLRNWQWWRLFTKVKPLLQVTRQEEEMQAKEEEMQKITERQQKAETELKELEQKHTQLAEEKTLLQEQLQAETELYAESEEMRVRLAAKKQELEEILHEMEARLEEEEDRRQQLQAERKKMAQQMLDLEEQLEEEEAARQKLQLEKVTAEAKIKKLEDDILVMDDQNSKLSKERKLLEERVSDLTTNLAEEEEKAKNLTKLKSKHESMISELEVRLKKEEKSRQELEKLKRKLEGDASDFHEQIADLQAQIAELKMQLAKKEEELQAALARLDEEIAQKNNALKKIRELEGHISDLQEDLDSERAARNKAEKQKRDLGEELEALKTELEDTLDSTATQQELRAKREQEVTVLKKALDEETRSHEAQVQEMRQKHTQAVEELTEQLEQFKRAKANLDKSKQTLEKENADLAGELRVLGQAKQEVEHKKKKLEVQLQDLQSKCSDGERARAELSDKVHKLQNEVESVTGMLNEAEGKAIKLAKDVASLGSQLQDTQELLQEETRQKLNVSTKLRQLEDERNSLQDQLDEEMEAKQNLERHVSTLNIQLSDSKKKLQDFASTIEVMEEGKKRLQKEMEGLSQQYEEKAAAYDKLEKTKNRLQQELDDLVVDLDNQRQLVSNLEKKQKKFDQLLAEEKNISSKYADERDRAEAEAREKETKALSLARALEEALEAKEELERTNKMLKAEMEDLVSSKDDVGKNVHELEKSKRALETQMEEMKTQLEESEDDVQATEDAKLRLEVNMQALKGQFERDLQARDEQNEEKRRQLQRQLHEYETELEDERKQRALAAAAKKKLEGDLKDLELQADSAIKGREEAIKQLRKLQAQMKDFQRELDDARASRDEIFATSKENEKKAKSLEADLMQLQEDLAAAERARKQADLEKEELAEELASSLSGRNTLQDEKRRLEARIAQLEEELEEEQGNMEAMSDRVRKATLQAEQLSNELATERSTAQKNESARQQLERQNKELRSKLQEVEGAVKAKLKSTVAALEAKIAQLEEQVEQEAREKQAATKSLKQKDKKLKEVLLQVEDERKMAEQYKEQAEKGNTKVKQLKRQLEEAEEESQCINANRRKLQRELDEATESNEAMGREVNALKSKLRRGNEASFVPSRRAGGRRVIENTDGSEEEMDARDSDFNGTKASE
UniProt Q9JMB7: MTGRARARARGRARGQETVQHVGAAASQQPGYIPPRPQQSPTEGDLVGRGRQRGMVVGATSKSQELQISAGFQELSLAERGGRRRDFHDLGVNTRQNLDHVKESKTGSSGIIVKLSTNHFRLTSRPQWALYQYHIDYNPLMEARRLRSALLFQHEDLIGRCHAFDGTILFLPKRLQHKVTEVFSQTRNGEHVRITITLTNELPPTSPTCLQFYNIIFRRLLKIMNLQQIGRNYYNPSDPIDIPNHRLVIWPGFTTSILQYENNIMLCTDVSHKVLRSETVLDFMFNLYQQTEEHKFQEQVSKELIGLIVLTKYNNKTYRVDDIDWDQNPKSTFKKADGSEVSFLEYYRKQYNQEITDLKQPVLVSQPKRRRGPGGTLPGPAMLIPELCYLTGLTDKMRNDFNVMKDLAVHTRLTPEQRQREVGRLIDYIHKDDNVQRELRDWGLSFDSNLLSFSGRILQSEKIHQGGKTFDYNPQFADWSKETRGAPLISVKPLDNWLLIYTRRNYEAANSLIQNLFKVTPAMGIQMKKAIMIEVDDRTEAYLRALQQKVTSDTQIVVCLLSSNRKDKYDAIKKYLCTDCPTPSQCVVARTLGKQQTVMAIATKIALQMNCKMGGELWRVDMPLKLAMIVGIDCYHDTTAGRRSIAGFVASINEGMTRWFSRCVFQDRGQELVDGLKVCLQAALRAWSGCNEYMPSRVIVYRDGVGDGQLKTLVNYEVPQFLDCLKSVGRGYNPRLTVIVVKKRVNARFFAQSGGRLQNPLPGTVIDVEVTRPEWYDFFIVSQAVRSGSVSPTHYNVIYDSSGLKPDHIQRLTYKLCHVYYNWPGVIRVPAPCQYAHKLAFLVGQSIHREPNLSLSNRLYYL
UniProt P17156: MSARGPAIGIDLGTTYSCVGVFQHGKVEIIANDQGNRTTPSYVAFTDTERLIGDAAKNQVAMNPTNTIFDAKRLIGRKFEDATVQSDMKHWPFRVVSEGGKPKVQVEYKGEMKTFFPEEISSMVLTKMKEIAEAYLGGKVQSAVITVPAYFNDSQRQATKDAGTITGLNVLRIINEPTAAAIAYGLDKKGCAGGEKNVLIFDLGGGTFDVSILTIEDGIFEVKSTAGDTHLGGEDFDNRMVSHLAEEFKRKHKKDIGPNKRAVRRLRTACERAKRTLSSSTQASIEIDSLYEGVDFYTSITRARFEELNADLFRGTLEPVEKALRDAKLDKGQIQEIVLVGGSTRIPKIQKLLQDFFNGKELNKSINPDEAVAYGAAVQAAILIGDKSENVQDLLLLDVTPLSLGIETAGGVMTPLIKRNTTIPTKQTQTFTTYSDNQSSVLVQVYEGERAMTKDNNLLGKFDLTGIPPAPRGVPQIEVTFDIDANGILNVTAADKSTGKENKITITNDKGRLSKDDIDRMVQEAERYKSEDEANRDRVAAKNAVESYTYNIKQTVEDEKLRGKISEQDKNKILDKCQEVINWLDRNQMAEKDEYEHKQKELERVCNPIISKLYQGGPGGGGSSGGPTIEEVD

These are yes or no findings as the source states them, for the method shown. In cells and extracts the contact can be indirect. Here binding means that the protein was enriched with, or labelled near, the bait; the list need not be complete.

Consider Ncl (from UniProt P09405 1-707), for which the binding result is reported as “binds”.

In the case of Myh10 (from UniProt Q61879 1-1976), the binding entry is recorded as “binds”.

In the case of Numa1 (from UniProt E9Q7G0 1-2094), the binding result is “binds”.

With Myh11 (from UniProt O08638 1-1972), the binding result was “binds”.

Npm1 (from UniProt Q61937 1-292): the binding result was “binds”.

As to Piwil1 (from UniProt Q9JMB7 1-862), the binding result is on record as “binds”.

With Hspa2 (from UniProt P17156 1-633), the binding entry is “binds”.

B1: Uhrf1 (protein, UniProt Q8VDF2 1-782)
chain: MWIQVRTMDGKETHTVNSLSRLTKVQELRKKIEEVFHVEPQLQRLFYRGKQMEDGHTLFDYDVRLNDTIQLLVRQSLALPLSTKERDSELSDSDSGYGVGHSESDKSSTHGEGAAEADDKTVWEDTDLGLYKVNEYVDVRDNIFGAWFEAQVVQVQKRALSEDEPCSSSAVKTSEDDIMYHVKYDDYPEHGVDIVKAKNVRARARTVIPWENLEVGQVVMANYNVDYPRKRGFWYDVEICRKRQTRTARELYGNIRLLNDSQLNNCRIMFVDEVLMIELPKERRPLIASPSQPPPALRNTGKSGPSCRFCKDDENKPCRKCACHVCGGREAPEKQLLCDECDMAFHLYCLKPPLTSVPPEPEWYCPSCRTDSSEVVQAGEKLKESKKKAKMASATSSSRRDWGKGMACVGRTTECTIVPANHFGPIPGVPVGTMWRFRVQVSESGVHRPHVAGIHGRSNDGAYSLVLAGGYEDDVDNGNYFTYTGSGGRDLSGNKRTAGQSSDQKLTNNNRALALNCHSPINEKGAEAEDWRQGKPVRVVRNMKGGKHSKYAPAEGNRYDGIYKVVKYWPERGKSGFLVWRYLLRRDDTEPEPWTREGKDRTRQLGLTMQYPEGYLEALANKEKSRKRPAKALEQGPSSSKTGKSKQKSTGPTLSSPRASKKSKLEPYTLSEQQANLIKEDKGNAKLWDDVLTSLQDGPYQIFLSKVKEAFQCICCQELVFRPVTTVCQHNVCKDCLDRSFRAQVFSCPACRFELDHSSPTRVNQPLQTILNQLFPGYGSGR
Consider B1, for which the binding entry is listed as “binds”.

B2: MAEL (protein, UniProt Q8BVN9 1-434)
chain: MPNRRASRNAYYFFVQEKIPELRRRGLPVARVADAIPYCSADWALLREDEKEKYSEMAREWRAAQGKDSGPSEKQKLVSTPLRRPGMLVPKPSISPPDMSNLSIKSDQALLGGIFYFLNIFSHGELPPHCEQRFLPCEIGCVKYSLQEGIMADFHSFIHPGEIPRGFRFHCQAASDSSHKIPISNFEFGHDQATVLQNLYKFIHPNPGNWPPIYCKSDDRARVNWCLKRMERASEIRQDLELLTVEDLVVGIYQQKFLKEPSKTWVRSLLDVAMWDYSSNTRCKWHEENDILFCALAVCKKIAYCISNSLATLFGIQLTGAHVPLQDYEASNSVTPKMVVLDAGRYQKLRVESPGFCHFNSYNQEQRSNTSTGYYPSGVKISGPHSSVRGRGITRLLESISNSSNNIHRFSSCETSLSPYTPQKDGYKPFSSFS
As to B2, the binding result is “binds”.

B3: Tdkrh (protein, UniProt Q80VL1 1-560)
chain: MSTERTSWTNLSTIQKIALGLGIPASATVAYILYRRYRESREERLTFVGEDDIEIEMRVPQEAVKLIIGRQGANIKQLRKQTGARIDVDTEDVGDERVLLISGFPVQVCKAKAAIHQILTENTPVFEQLSVPQRSVGRIIGRGGETIRSICKASGAKITCDKESEGTLLLSRLIKISGTQKEVAAAKHLILEKVSEDEELRKRIAHSAETRVPRKQPISVRREEVTEPGGAGEAALWKNTNSSMGPATPLEVPLRKGGGDMVVVGPKEGSWEKPNDDSFQNSGAQSSPETSMFEIPSPDFSFHADEYLEVYVSASEHPNHFWIQIIGSRSLQLDKLVSEMTQHYENSLPEDLTVHVGDIVAAPLSTNGSWYRARVLGTLENGNLDLYFVDFGDNGDCALKDLRALRSDFLSLPFQAIECSLARIAPTGEEWEEEALDEFDRLTHCADWKPLVAKISSYVQTGISTWPKIYLYDTSDEKKLDIGLELVRKGYAVELPEDMEENRTVPNMLKDMATETDDSLASILTETKKSPEEMPHTLSCLSLSEAASMSGDDNLEDDLF
As to B3, the binding result is “binds”.

The values are drawn from paper PMC7057672.
